The target of assay [1] is programmed death ligand-1 (PD-L1) (human (endogenous in HepG2)) (UniProt Q9NZQ7). The experiment in a line: co-IP; endogenous proteins in HepG2 whole-cell lysate (NP40 buffer: 1% NP40, 150 mM NaCl, 40 mM Tris pH 7.5); PD-L1 immuno-complex captured on protein A/G beads, blot for RNF125.
A further assay deals with Flag-PD-L1 (UniProt Q9NZQ7). Nature of the assay: co-IP; HEK293T co-transfected with HA-RNF125 and Flag-PD-L1 or Flag-vector; anti-Flag immunoprecipitate blotted with anti-HA; NP40 buffer (1% NP40, 150 mM NaCl, 40 mM Tris pH 7.5).

Protein sequences, listed by entry. Tags and fused reporters are not part of them. Residues count along the entry.
UniProt Q9NZQ7, residues 19-290: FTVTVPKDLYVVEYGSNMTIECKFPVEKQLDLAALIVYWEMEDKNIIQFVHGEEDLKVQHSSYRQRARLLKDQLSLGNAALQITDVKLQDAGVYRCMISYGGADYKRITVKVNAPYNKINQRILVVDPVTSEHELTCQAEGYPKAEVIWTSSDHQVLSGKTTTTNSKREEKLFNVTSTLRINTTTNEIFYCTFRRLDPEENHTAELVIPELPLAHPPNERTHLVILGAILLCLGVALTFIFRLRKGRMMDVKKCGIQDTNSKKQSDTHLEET

Here are results for 2 molecules from article PMC9374197.

No constants are given. Whether binding was seen depends on the method and setting. Binding seen in cells or lysates may run through a third protein. Some results given as binding are weak or reduced against the parent protein; the word gives no strength. For some assays here: Sequences can lack the tags named with a protein.

B1: RNF125 (protein, UniProt Q96EQ8 1-232)
chain: MGSVLSTDSGKSAPASATARALERRRDPELPVTSFDCAVCLEVLHQPVRTRCGHVFCRSCIATSLKNNKWTCPYCRAYLPSEGVPATDVAKRMKSEYKNCAECDTLVCLSEMRAHIRTCQKYIDKYGPLQELEETAARCVCPFCQRELYEDSLLDHCITHHRSERRPVFCPLCRLIPDENPSSFSGSLIRHLQVSHTLFYDDFIDFNIIEEALIRRVLDRSLLEYVNHSNTT
For the molecule B1, the binding result in assay [1] is recorded as “binds”.

B2: HA-RNF125 (protein, UniProt Q96EQ8 1-232)
chain: MGSVLSTDSGKSAPASATARALERRRDPELPVTSFDCAVCLEVLHQPVRTRCGHVFCRSCIATSLKNNKWTCPYCRAYLPSEGVPATDVAKRMKSEYKNCAECDTLVCLSEMRAHIRTCQKYIDKYGPLQELEETAARCVCPFCQRELYEDSLLDHCITHHRSERRPVFCPLCRLIPDENPSSFSGSLIRHLQVSHTLFYDDFIDFNIIEEALIRRVLDRSLLEYVNHSNTT
Regarding B2, the binding entry with Flag-PD-L1 is reported as “binds”.
